PubChem BioAssay AID1224826 | NIAID, 2016
Purpose: 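Regulators of Tlr4 signalling leading to Tnf-alpha expression in macrophages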 (primary screen). System: RAW264.7 G9 macrophages from mouse bearing reporters for p65 (GFP) and the Tnf promoter (mCherry). Reagents: siRNA pool against mouse genes, 100 nM. Duration: 16 h of LPS stimulation, after 2 days of siRNA transfection. Treatment: bacterial lipopolysaccharide (Salmonella minnesota R595), 10 ng/ml. Measurement: 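Nuclear mCherry signal of the Tnf promoter reporter measured by imaging after background removal, scaled to each plate median and turned into robust z-scores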. Scale: Tnf reporter robust z-score: higher = stronger Tnf promoter reporter signal after LPS. Hit rule: 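Called active when robust z-score is at most -1.3, matching the median of the Tlr4 knock-down control, or over 3; control wells and wells with under 50 cells never active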. Calls: active = Tnf reporter clearly lowered or raised; inactive = no clear change in Tnf reporter.
The whole screen tested about 17,000 reagents; below is a random part of them. About 1,110 of all reagents (6.6%) count as active. 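Active means lowered or raised reporter signal; replicate intensities are raw and not normalised per plate.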 Unmarked entries are inactive. The numbers tell different reagents against one gene apart. Not all columns of the deposit are shown. Reagent sequences are not shown.

no.	Gene	reagent no.	Tnf reporter robust z-score	fewer than 50 cells in well
1	Zfp169	1	-0.57	enough cells in well
2	Akirin1	1	-1.12	enough cells in well
3	Uroc1	1	0.25	enough cells in well
4	Bcl2l1	1	1.22	enough cells in well
5	Vrk3	1	0.16	enough cells in well
6	Or5l14	1	0.14	enough cells in well
7	Smyd1	1		fewer than 50 cells per well; well left out of calls
8	Galr3	1	-0.48	enough cells in well
9	Chtf18	1	1.13	enough cells in well
10	Nkg7	1	0.47	enough cells in well
11	Cyp8b1	1	-1.81 (active)	enough cells in well
12	Ncs1	1	0.57	enough cells in well
13	1600012H06Rik	1		fewer than 50 cells per well; well left out of calls
14	Strbp	1		fewer than 50 cells per well; well left out of calls
15	Strbp	2	0.86	enough cells in well
16	Zfp691	1		fewer than 50 cells per well; well left out of calls
17	Aknaos	1		fewer than 50 cells per well; well left out of calls
18	Cxcl17	1	-0.2	enough cells in well
19	Hk1	1	-0.18	enough cells in well
20	Brinp1	1	0.12	enough cells in well
21	Ramp3	1	0.16	enough cells in well
22	Canx	1	-0.1	enough cells in well
23	Dnai7	1	0.74	enough cells in well
24	Nudt12	1	0.31	enough cells in well
25	Tas2r131	1	1.06	enough cells in well
26	Aldh2	1	-0.76	enough cells in well
27	Vmn1r63	1	0.48	enough cells in well
28	Gtf2f1	1	-1.34 (active)	enough cells in well
29	Polrmt	1	2.39	enough cells in well
30	Frzb	1	1.13	enough cells in well
31	Tmem26	1	2.31	enough cells in well
32	Sp4	1	-0.52	enough cells in well
33	Ankrd42	1	0.55	enough cells in well
34	Chst2	1	-0.38	enough cells in well
35	Or12k8	1	-1.13	enough cells in well
36	Flii	1	-0.92	enough cells in well
37	Ptger3	1	-0.92	enough cells in well
38	Rlig1	1	0.2	enough cells in well
39	Gse1	1	-0.34	enough cells in well
40	Zgrf1	1	1.02	enough cells in well
41	Csf1	1	0.12	enough cells in well
42	Rps11	1		fewer than 50 cells per well; well left out of calls
43	Or2t6	1	-0.55	enough cells in well
44	Ppp1r14d	1	1.23	enough cells in well
45	Tsen15	1	-0.01	enough cells in well
46	Guf1	1	0.73	enough cells in well
47	Dixdc1	1	3.52 (active)	enough cells in well
48	Or13p3	1	2.99	enough cells in well
49	Fbxo24	1	-0.47	enough cells in well
50	Cnot3	1	-0.25	enough cells in well
51	E2f6	1	0.74	enough cells in well
52	Socs5	1	-0.35	enough cells in well
53	H2-Q7	1	0.69	enough cells in well
54	Cep97	1	-0.66	enough cells in well
55	Dip2b	1	-1.08	enough cells in well
56	Map6	1	-0.43	enough cells in well
57	Medag	1	0.29	enough cells in well
58	Aldh16a1	1		fewer than 50 cells per well; well left out of calls
